Source: publication PMC7927628
No constants are given. Whether binding was seen depends on the method and setting. In cells and extracts the contact can be indirect. A yes stands for co-enrichment or nearness to the bait. Other partners may have been found.

The chains behind the UniProt entries cited, without tags or fusion partners.
UniProt O75901: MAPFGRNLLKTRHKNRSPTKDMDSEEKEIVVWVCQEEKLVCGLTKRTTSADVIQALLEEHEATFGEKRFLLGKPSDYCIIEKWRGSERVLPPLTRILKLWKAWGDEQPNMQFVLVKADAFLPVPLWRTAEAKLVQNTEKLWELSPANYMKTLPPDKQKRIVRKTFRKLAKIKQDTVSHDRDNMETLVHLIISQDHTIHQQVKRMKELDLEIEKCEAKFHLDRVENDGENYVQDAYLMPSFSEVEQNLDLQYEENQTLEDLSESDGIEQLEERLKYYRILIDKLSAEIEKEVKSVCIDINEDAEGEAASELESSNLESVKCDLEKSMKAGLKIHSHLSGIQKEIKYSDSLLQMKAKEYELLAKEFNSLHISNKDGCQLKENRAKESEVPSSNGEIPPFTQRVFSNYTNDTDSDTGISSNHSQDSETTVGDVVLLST

Target: T1, TGF‐β‐activated kinase 1 (TAK1) (UniProt O43318)
T1 sequence: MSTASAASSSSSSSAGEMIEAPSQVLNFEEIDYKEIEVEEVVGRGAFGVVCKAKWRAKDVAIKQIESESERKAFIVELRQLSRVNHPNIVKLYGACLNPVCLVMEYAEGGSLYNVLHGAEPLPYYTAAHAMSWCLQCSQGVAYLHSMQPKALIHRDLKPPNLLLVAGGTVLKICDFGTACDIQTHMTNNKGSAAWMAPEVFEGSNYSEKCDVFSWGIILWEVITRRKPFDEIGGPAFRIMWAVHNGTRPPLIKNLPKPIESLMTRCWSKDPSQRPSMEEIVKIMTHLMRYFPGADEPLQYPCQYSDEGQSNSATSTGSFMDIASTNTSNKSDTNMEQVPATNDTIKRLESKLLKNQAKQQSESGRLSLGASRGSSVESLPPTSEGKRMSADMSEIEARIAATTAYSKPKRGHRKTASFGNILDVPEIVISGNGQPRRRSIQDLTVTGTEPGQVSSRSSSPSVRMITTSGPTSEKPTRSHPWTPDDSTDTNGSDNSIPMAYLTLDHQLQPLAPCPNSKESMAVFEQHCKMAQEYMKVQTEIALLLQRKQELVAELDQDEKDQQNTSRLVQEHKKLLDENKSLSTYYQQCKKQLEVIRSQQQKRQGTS
Assay: affinity purification with mass spectrometry; co-immunoprecipitation with anti-TAK1 antibody, then mass spectrometry of phosphorylated proteins in the complex; cells not told in the main text

## Ras association domain family 9 (RASSF9), phosphorylated at S284 (from UniProt O75901 1-435)
  binding: binds
